Measurements reported in PubChem BioAssay AID1224830 (NIAID, 2016)

Test: 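Genes whose knock-down alters the TNF-alpha reporter response to LPS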 (primary screen)
Cells: human THP-1 monocytic leukaemia cells, TNF dual-luciferase reporter clone, PMA-differentiated to macrophage-like cells
Reagent: siRNA pool against human genes, 50 nM
Timing: LPS for 4 h, given about 3 days after siRNA transfection
Conditions: bacterial LPS (TLR4 ligand), 10 ng/ml
Measured: 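Ratio of firefly to renilla light, scaled to the plate median and expressed as a robust z-score per replicate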
Reading the numbers: TNF reporter robust z-score: higher = stronger TNF reporter response to LPS
Rule for the call: 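Each well counts as active if its z-score is over 2.8 or under -1.5; controls are left without a call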
Here is a random part of about 18,000 deposited reagents. In the full data, about 2,900 (16%) got an active call. 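Calls are made per well; low scores hint the gene aids the LPS response, high scores that it dampens it.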 Repeated entries: four replicate wells of each siRNA pool.

target gene | TNF reporter robust z-score | Call
LCE1C (late cornified envelope 1C) | -0.27 | inactive
LCE1C (late cornified envelope 1C) | 1.37 | inactive
LCE1C (late cornified envelope 1C) | 0.17 | inactive
LCE1C (late cornified envelope 1C) | 1.64 | inactive
SLITRK3 (SLIT and NTRK like family member 3) | -0.06 | inactive
SLITRK3 (SLIT and NTRK like family member 3) | 2.74 | inactive
SLITRK3 (SLIT and NTRK like family member 3) | -0.2 | inactive
SLITRK3 (SLIT and NTRK like family member 3) | -0.62 | inactive
GPM6A (glycoprotein M6A) | -1.03 | inactive
GPM6A (glycoprotein M6A) | 0.29 | inactive
GPM6A (glycoprotein M6A) | -0.65 | inactive
GPM6A (glycoprotein M6A) | -0.62 | inactive
POMGNT2 | -1.95 | active
POMGNT2 | -0.59 | inactive
POMGNT2 | -1.3 | inactive
POMGNT2 | -1.32 | inactive
SNRPE (small nuclear ribonucleoprotein polypeptide E) | 0.6 | inactive
SNRPE (small nuclear ribonucleoprotein polypeptide E) | 0.48 | inactive
SNRPE (small nuclear ribonucleoprotein polypeptide E) | 0.15 | inactive
SNRPE (small nuclear ribonucleoprotein polypeptide E) | 0.97 | inactive
H2AJ (H2A.J histone) | -1.15 | inactive
H2AJ (H2A.J histone) | -0.21 | inactive
H2AJ (H2A.J histone) | 0.01 | inactive
H2AJ (H2A.J histone) | -0.05 | inactive
DUSP26 (dual specificity phosphatase 26) | 0.25 | inactive
DUSP26 (dual specificity phosphatase 26) | -0.09 | inactive
DUSP26 (dual specificity phosphatase 26) | 0.58 | inactive
DUSP26 (dual specificity phosphatase 26) | 0.93 | inactive
TMEM25 (transmembrane protein 25) | -1.45 | inactive
TMEM25 (transmembrane protein 25) | -0.24 | inactive
TMEM25 (transmembrane protein 25) | 0.92 | inactive
TMEM25 (transmembrane protein 25) | 0.46 | inactive
SPRY3 (sprouty RTK signaling antagonist 3) | -0.34 | inactive
SPRY3 (sprouty RTK signaling antagonist 3) | 1.41 | inactive
SPRY3 (sprouty RTK signaling antagonist 3) | 0.28 | inactive
SPRY3 (sprouty RTK signaling antagonist 3) | 0.19 | inactive
C3orf38 (chromosome 3 open reading frame 38) | -1.62 | active
C3orf38 (chromosome 3 open reading frame 38) | -0.67 | inactive
C3orf38 (chromosome 3 open reading frame 38) | -1.06 | inactive
C3orf38 (chromosome 3 open reading frame 38) | -1.47 | inactive
IL20RB (interleukin 20 receptor subunit beta) | 1.48 | inactive
IL20RB (interleukin 20 receptor subunit beta) | 1.72 | inactive
IL20RB (interleukin 20 receptor subunit beta) | -0.85 | inactive
IL20RB (interleukin 20 receptor subunit beta) | -0.67 | inactive
IER5 (immediate early response 5) | -0.7 | inactive
IER5 (immediate early response 5) | 0.49 | inactive
IER5 (immediate early response 5) | 0.41 | inactive
IER5 (immediate early response 5) | 0.15 | inactive

5 of these entries, set out differently.
| target gene | TNF reporter robust z-score | Call |
| --- | --- | --- |
| C3orf38 (chromosome 3 open reading frame 38) | -1.47 | inactive |
| IL20RB (interleukin 20 receptor subunit beta) | 1.48 | inactive |
| IL20RB (interleukin 20 receptor subunit beta) | 1.72 | inactive |
| IL20RB (interleukin 20 receptor subunit beta) | -0.85 | inactive |
| IL20RB (interleukin 20 receptor subunit beta) | -0.67 | inactive |
